Measured values as given in the supplement of paper PMC12067093, “Discovery and optimisation of a covalent ligand for TRIM25 and its application to targeted protein ubiquitination” (Chemical Science, 2025).
The list shows a part of the results.

Protein sequences, listed by entry. Tags and fused reporters are not part of them. Lines headed by an entry give the natural chain unless they say otherwise; changes in a name come on top.
UniProt O95671: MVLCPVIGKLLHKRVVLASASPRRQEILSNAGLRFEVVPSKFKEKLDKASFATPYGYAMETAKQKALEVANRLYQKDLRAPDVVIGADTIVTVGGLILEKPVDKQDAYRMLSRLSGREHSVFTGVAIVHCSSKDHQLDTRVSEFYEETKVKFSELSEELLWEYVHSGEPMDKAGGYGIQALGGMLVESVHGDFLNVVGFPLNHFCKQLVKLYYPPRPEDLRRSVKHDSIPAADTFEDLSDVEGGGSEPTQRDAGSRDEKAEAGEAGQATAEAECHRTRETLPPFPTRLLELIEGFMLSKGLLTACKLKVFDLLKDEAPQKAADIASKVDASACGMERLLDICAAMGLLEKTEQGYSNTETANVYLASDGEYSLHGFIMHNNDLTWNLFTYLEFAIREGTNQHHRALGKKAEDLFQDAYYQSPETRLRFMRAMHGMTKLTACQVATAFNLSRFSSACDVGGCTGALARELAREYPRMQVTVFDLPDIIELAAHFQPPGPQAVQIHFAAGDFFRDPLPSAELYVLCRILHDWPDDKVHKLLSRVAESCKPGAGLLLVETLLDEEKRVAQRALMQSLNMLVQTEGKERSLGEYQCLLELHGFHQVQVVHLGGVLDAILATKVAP
UniProt Q96DT6: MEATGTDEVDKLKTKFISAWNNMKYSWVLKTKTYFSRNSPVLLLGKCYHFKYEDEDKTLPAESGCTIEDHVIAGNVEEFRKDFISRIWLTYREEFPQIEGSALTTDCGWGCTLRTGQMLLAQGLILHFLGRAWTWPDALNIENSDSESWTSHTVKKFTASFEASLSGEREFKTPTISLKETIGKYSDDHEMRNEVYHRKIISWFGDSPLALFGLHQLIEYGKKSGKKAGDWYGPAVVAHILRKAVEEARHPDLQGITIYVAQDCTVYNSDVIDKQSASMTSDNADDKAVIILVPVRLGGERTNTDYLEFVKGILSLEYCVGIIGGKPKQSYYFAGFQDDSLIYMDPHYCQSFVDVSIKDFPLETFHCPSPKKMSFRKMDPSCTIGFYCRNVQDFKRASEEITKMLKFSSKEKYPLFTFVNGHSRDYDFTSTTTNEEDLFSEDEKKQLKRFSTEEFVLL
UniProt Q9HD20: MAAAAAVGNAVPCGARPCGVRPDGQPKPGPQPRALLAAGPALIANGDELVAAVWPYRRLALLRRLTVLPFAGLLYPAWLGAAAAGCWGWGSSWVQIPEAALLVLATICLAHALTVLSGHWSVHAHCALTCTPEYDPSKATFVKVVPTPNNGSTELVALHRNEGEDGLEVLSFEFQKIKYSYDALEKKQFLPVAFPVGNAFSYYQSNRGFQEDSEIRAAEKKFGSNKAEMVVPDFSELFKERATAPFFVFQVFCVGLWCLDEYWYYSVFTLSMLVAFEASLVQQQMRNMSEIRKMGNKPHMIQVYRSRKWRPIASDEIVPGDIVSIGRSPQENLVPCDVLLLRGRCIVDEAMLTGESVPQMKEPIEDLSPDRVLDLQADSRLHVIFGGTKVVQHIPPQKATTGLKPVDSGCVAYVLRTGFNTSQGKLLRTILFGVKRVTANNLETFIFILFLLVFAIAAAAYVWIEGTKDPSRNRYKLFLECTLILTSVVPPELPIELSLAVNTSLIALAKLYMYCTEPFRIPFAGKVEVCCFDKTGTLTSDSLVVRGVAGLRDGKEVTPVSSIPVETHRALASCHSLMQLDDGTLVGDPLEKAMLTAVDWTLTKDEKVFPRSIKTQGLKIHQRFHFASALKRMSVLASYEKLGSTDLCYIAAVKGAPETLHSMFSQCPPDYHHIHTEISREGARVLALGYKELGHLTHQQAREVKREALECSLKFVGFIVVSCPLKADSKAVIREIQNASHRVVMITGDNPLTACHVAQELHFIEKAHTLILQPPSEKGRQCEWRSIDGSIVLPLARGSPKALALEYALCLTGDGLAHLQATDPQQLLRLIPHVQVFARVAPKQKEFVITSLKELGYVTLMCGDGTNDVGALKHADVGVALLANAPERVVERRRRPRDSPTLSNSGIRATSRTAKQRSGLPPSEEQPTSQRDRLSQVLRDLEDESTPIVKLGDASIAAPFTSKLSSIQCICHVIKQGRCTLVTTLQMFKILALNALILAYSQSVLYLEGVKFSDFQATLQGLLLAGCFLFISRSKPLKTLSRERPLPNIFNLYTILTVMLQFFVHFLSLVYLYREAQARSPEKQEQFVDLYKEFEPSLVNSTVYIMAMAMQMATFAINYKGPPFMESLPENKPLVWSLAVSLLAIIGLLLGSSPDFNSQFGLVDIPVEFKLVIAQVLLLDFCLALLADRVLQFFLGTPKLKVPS
UniProt P61421, whole entry, looked up: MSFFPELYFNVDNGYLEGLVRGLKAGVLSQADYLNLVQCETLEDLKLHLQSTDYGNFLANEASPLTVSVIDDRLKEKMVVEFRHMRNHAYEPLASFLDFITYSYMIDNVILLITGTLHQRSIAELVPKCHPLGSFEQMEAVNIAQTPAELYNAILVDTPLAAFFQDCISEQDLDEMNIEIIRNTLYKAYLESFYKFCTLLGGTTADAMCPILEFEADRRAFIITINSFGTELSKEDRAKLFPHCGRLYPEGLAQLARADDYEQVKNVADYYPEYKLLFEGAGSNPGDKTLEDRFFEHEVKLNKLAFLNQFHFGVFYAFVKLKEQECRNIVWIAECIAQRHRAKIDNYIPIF
UniProt P31939: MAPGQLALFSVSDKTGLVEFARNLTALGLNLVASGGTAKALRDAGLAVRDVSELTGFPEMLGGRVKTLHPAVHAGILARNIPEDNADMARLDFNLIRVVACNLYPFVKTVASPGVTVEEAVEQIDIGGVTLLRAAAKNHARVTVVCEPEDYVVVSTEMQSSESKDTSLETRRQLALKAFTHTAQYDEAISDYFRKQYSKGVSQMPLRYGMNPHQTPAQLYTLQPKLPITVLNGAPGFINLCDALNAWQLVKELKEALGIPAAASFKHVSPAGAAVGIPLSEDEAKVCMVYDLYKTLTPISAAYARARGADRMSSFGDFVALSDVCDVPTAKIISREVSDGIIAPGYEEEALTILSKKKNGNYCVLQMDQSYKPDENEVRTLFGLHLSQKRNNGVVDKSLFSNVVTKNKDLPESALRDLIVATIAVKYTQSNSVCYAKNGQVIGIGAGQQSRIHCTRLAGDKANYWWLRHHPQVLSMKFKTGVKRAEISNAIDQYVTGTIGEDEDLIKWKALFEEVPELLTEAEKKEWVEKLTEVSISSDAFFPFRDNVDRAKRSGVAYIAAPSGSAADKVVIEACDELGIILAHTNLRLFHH
UniProt P46100: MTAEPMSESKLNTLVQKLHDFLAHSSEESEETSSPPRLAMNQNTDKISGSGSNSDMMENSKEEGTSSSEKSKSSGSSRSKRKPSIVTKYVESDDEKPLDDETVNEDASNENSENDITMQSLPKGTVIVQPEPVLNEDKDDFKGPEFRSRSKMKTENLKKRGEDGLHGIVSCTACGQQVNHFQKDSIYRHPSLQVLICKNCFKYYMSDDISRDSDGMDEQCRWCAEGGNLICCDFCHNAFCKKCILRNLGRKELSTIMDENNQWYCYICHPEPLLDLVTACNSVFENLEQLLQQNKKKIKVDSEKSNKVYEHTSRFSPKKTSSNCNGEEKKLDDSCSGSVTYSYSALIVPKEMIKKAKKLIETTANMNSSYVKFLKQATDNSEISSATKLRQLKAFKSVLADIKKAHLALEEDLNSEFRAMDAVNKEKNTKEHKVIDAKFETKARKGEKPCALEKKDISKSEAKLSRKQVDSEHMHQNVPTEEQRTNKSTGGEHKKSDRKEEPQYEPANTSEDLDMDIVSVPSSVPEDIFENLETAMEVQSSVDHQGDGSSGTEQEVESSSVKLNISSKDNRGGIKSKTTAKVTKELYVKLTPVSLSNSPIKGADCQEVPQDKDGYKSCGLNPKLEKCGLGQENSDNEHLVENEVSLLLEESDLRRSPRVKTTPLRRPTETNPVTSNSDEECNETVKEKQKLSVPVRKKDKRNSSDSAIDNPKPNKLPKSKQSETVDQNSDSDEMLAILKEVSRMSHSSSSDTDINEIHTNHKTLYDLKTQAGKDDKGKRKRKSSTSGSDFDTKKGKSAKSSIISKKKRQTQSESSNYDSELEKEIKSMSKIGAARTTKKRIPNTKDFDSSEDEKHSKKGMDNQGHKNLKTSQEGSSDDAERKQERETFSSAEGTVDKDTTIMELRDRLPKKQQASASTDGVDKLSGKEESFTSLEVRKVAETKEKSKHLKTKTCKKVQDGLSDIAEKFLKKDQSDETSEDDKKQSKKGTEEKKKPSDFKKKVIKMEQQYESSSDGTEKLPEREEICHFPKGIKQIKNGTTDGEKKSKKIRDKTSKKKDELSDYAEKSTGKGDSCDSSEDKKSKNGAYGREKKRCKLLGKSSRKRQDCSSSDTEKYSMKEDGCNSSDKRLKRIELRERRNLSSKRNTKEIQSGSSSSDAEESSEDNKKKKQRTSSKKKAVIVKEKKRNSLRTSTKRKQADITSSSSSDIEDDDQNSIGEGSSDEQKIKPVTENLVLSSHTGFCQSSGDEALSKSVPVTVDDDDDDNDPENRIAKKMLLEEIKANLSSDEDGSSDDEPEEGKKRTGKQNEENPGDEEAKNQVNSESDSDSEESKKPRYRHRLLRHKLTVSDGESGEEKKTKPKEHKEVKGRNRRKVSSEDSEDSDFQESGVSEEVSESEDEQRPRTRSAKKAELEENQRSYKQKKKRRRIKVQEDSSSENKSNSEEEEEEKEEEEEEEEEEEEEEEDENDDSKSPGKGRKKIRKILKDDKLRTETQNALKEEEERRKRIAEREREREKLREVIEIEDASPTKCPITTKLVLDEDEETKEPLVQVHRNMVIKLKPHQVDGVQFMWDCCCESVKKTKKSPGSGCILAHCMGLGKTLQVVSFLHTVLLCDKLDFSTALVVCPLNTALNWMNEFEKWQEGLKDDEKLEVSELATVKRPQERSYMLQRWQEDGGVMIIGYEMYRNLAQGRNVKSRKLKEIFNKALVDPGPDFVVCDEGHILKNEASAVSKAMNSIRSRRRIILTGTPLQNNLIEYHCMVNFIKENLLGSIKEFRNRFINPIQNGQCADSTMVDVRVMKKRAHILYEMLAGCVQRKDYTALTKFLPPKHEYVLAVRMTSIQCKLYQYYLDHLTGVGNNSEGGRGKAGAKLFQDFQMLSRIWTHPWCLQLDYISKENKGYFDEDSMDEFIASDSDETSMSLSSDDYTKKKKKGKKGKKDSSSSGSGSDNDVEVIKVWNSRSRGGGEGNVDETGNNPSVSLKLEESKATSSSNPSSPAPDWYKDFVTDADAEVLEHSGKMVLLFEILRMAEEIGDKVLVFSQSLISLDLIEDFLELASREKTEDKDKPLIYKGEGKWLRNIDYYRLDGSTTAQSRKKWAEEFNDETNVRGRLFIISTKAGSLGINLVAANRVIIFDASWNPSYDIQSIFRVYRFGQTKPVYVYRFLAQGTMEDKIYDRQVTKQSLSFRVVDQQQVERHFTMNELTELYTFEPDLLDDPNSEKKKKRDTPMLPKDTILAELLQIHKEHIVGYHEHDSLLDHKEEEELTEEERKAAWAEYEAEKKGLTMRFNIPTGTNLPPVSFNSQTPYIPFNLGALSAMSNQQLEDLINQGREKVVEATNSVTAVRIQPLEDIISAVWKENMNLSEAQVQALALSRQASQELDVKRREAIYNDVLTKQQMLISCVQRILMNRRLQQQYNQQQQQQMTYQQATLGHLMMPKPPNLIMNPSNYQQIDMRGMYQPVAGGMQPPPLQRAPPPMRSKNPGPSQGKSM
UniProt Q5TC12: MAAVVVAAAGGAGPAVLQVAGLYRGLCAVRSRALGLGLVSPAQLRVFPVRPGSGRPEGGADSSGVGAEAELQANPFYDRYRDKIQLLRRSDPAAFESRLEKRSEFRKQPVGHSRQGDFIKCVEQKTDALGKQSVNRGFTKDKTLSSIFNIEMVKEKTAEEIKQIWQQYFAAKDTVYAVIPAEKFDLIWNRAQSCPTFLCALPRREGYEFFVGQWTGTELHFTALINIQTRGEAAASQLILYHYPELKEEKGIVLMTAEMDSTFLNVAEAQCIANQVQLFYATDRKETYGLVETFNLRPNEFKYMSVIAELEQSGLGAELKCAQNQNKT
UniProt P15848: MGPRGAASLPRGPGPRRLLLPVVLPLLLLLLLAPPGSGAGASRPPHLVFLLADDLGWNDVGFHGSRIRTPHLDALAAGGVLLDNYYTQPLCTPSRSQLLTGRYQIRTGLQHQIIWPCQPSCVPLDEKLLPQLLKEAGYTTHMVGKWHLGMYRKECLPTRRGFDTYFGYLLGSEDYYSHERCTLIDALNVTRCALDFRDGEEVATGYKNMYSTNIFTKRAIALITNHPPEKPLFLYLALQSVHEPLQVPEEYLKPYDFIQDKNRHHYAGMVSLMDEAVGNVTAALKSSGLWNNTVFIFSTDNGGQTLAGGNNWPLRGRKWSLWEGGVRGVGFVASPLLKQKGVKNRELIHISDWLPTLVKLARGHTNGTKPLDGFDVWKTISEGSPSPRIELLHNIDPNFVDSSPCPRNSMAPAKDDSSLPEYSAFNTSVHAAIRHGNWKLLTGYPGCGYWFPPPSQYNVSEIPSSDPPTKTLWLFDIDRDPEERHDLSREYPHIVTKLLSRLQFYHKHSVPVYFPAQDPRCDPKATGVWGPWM

Compound: Cc1cc(ccc1-c1ccccc1)C(=O)N1CCCN(CC1)C(=O)CCl [compound 10]
Experiment: probe-labelled cysteine peptide fold change vs DMSO (competition) (log2 fold change); higher = less target engagement (more negative = stronger competition)
Settings: THP-1, incubation time: 4 h
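Further: competitive profiling in live THP-1 cells: cysteine peptides tagged with an iodoacetamide desthiobiotin (IA-DTB) probe, intensity after compound treatment relative to DMSO-treated cells.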

In the case of “ASMTL_O95671_333_VDASACGMER (UniProt O95671)”, the “probe-labelled cysteine peptide fold change” value (10 µM) is reported as -0.0682 and the “probe-labelled cysteine peptide fold change” value (50 µM) is reported as -0.332.
“ATG4C_Q96DT6_65_TLPAESGCTIEDHVIAGNVEEFRK (UniProt Q96DT6)” was tested, and the “probe-labelled cysteine peptide fold change” value (10 µM) was -0.065 and the “probe-labelled cysteine peptide fold change” value (50 µM) was -0.309.
With “ATP13A1_Q9HD20_574_ALASCHSLMQLDDGTLVGDPLEK (UniProt Q9HD20)” the “probe-labelled cysteine peptide fold change” value (10 µM) was 0.341 and the “probe-labelled cysteine peptide fold change” value (50 µM) was 0.204.
In the case of “ATP6V0D1_P61421_244_LFPHCGR (UniProt P61421)”, the “probe-labelled cysteine peptide fold change” value (10 µM) is reported as -0.0884 and the “probe-labelled cysteine peptide fold change” value (50 µM) is reported as 0.11.
In the case of “ATP6V1H_Q9UI12_85_TFINLMTHICK (UniProt Q9UI12)”, the “probe-labelled cysteine peptide fold change” value (10 µM) is reported as 0.139 and the “probe-labelled cysteine peptide fold change” value (50 µM) is reported as -0.26.
For “ATIC_P31939_575_VVIEACDELGIILAHTNLR (UniProt P31939)”, the “probe-labelled cysteine peptide fold change” value (10 µM) was 0.103 and the “probe-labelled cysteine peptide fold change” value (50 µM) was 0.126.
“ATRX_P46100_1814_AHILYEMLAGCVQR (UniProt P46100)” was tested, and the “probe-labelled cysteine peptide fold change” value (10 µM) was 0.0558 and the “probe-labelled cysteine peptide fold change” value (50 µM) was 0.123.
With “ATP6V1B2_P21281_112_TSCEFTGDILR (UniProt P21281)” the “probe-labelled cysteine peptide fold change” value (10 µM) was -0.0801 and the “probe-labelled cysteine peptide fold change” value (50 µM) was 0.191.
With “ATR_Q13535_1343_GCQDANSQAR (UniProt Q13535)” the “probe-labelled cysteine peptide fold change” value (10 µM) was 0.175 and the “probe-labelled cysteine peptide fold change” value (50 µM) was -0.177.
With “ATP2B1_P20020_473_HLDACETMGNATAICSDK (UniProt P20020)” the “probe-labelled cysteine peptide fold change” value (10 µM) was -0.157 and the “probe-labelled cysteine peptide fold change” value (50 µM) was -0.163.
“ATRIP_Q8WXE1_585_FQCVFQVLPK (UniProt Q8WXE1)” was tested, and the “probe-labelled cysteine peptide fold change” value (10 µM) was -0.0711 and the “probe-labelled cysteine peptide fold change” value (50 µM) was -0.117.
With “ATPAF1_Q5TC12_194_AQSCPTFLCALPR (UniProt Q5TC12)” the “probe-labelled cysteine peptide fold change” value (10 µM) was 0.223 and the “probe-labelled cysteine peptide fold change” value (50 µM) was 0.0303.
In the case of “ARSB_P15848_121_TGLQHQIIWPCQPSCVPLDEK (UniProt P15848)”, the “probe-labelled cysteine peptide fold change” value (10 µM) is reported as 0.151 and the “probe-labelled cysteine peptide fold change” value (50 µM) is reported as 0.201.
In the case of “ATIC_P31939_146_VTVVCEPEDYVVVSTEMQSSESK (UniProt P31939)”, the “probe-labelled cysteine peptide fold change” value (10 µM) is reported as -0.00853 and the “probe-labelled cysteine peptide fold change” value (50 µM) is reported as 0.073.
